Laboratory results as given in patent US11592453B2, “Personalized metabolomic profiling of specialized pro-resolving mediators” (THE BRIGHAM AND WOMEN'S HOSPITAL, INC., priority 2016, dated 2023).

Tested on: prostaglandin, thromboxane and SPM production in human whole blood
Experiment: LM metabololipidomics of human whole blood during coagulation in the presence of indomethacin
Assay type: cell-based
Settings: mean of six donors; for LM concentration Avg, Indomethacin t = 0 h: 0 h after coagulation in the presence of indomethacin; for LM concentration Avg, Indomethacin t = 0.25 h: 0.25 h after coagulation in the presence of indomethacin; for LM concentration Avg, Indomethacin t = 0.5 h: 0.5 h after coagulation in the presence of indomethacin; for LM concentration Avg, Indomethacin t = 1 h: 1 h after coagulation in the presence of indomethacin; for LM concentration Avg, Indomethacin t = 3 h: 3 h after coagulation in the presence of indomethacin; for LM concentration Avg, Indomethacin t = 6 h: 6 h after coagulation in the presence of indomethacin; for LM concentration Avg, Indomethacin t = 24 h: 24 h after coagulation in the presence of indomethacin
Protocol: FIG. 8 illustrates SPM formation in human blood clots being regulated by lipoxygenase activity. (A and B) Freshly drawn human peripheral blood (4 ml) was placed in silicone-coated tubes at 37° C. for 24 hours and coagulation was stopped by snap-freezing before LC-MS/MS analysis was performed. Concentrations of total SPMs, prostaglandins, and thromboxanes after 24 hours of coagulation (Coag.) in the presence or absence of (A) 100 μM indomethacin (Indo.) (n=six individual donors), (B) 500 nM celecoxib (CLX) or 20 μM BAI (n=three individual donors). Data are means±SEM; *P<0.05 for +BAI vs. Coag; ****P<0.0001 for +Indo vs. Coag. using ratio t-test.
Human whole blood was transferred in 4-ml aliquots to negatively charged, silicone-coated 10-ml tubes (BD) without anticoagulant. For experiments with heparin, the heparinized blood was placed in 15-ml polypropylene tubes before incubation at 37° C. For LM profiling at designated times, all samples were immediately subjected to a workup procedure by which whole blood was snap-frozen in a dry ice/isopropanol bath and were returned to room temperature (×3 cycles) before undergoing centrifugation at 100,000 g at 4° C. Supernatants (and clots for select experiments; see FIG. 6) were collected and were subjected to LC-MS/MS LM metabololipidomics.
To obtain a complete blood profile of eicosanoids and SPMs each sample was subjected to a procedure involving snap-freezing of whole blood that was then thawed to room temperature three times and centrifuged at 100,000 g at 4 °C for 30 min before undergoing solid-phase extraction (SPE). Internal standards including d8-5-HETE, d5-RvD2, d5-LXA4, d4-LTB4, and d4-PGE2 (500 pg each; Cayman Chemical) were added together with four volumes of methanol to facilitate protein precipitation. […] Before elution, LM bound to the SPE matrix were neutralized with ddH2O. Methyl formate fractions from the SPE were brought to dryness under a gentle stream of nitrogen and resuspended in 1:1 methanol:water before injection into a liquid chromatography-tandem mass spectrometry system consisting of a QTrap 5500 (AB Sciex) equipped with a Shimadzu LC-20AD HPLC (Tokyo, Japan). A Poroshell 120 EC-18 column (100 mm×4.6 mm×2.7 μm; Agilent Technologies) was kept in a column oven maintained at 50° C., and lipid mediators (LMs) were eluted in a gradient of methanol/water/acetic acid from 55:45:0.01 (v/v/v) to 100:0:0.01 at a flow rate of 0.5 ml/min. To monitor and quantify the amounts of lipid mediators of interest, multiple reaction monitoring (MRM) was used with MS/MS matching signature ion fragments for each molecule (at least six diagnostic ions; ˜0.1 pg limits of detection as described previously (15)]. PCA was performed as described previously (15) with SIMCA software, version 13.0.3. Calibration curves were obtained daily from authentic (nonsynthetic) standards and matrix suppression for each targeted LM in snap-frozen blood, and supernatants determined and used for recovery and quantitation.

CC/C=C\C/C=C\C/C=C\C/C=C\C/C=C\C=C\C(O)CCC(=O)O (stereo not drawn) [4-HDHA]
LM concentration Avg, Indomethacin t = 0 h: 8.5 pg/mL | LM concentration Avg, Indomethacin t = 0.25 h: 10.7 pg/mL | LM concentration Avg, Indomethacin t = 0.5 h: 11.3 pg/mL | LM concentration Avg, Indomethacin t = 1 h: 11.8 pg/mL | LM concentration Avg, Indomethacin t = 3 h: 17.1 pg/mL | LM concentration Avg, Indomethacin t = 6 h: 26.6 pg/mL | LM concentration Avg, Indomethacin t = 24 h: 42.3 pg/mL

CC/C=C\C/C=C\C[C@H](O)/C=C/C=C\C/C=C\C=C\[C@@H](O)CCC(=O)O [4S,14S-diHDHA]
LM concentration Avg, Indomethacin t = 0 h: 2.8 pg/mL | LM concentration Avg, Indomethacin t = 0.25 h: 3.2 pg/mL | LM concentration Avg, Indomethacin t = 0.5 h: 3.0 pg/mL | LM concentration Avg, Indomethacin t = 1 h: 2.5 pg/mL | LM concentration Avg, Indomethacin t = 3 h: 9.0 pg/mL | LM concentration Avg, Indomethacin t = 6 h: 12.2 pg/mL | LM concentration Avg, Indomethacin t = 24 h: 15.7 pg/mL

CC/C=C\C/C=C\C/C=C\C/C=C\C=C\C(O)CCCC(=O)O (stereo not drawn) [5-HEPE]
LM concentration Avg, Indomethacin t = 0 h: 2.5 pg/mL | LM concentration Avg, Indomethacin t = 0.25 h: 3.7 pg/mL | LM concentration Avg, Indomethacin t = 0.5 h: 6.6 pg/mL | LM concentration Avg, Indomethacin t = 1 h: 7.7 pg/mL | LM concentration Avg, Indomethacin t = 3 h: 13.1 pg/mL | LM concentration Avg, Indomethacin t = 6 h: 15.0 pg/mL | LM concentration Avg, Indomethacin t = 24 h: 23.3 pg/mL

CCCCC/C=C\C/C=C\C/C=C\C=C\[C@@H](O)CCCC(=O)O [5-HETE]
LM concentration Avg, Indomethacin t = 0 h: 15.5 pg/mL | LM concentration Avg, Indomethacin t = 0.25 h: 19.7 pg/mL | LM concentration Avg, Indomethacin t = 0.5 h: 51.0 pg/mL | LM concentration Avg, Indomethacin t = 1 h: 61.4 pg/mL | LM concentration Avg, Indomethacin t = 3 h: 122.6 pg/mL | LM concentration Avg, Indomethacin t = 6 h: 145.2 pg/mL | LM concentration Avg, Indomethacin t = 24 h: 148.7 pg/mL

CCCCC/C=C\C[C@H](O)/C=C/C=C\C=C\[C@@H](O)CCCC(=O)O [5S,12S-diHETE]
LM concentration Avg, Indomethacin t = 0 h: 1.2 pg/mL | LM concentration Avg, Indomethacin t = 0.25 h: 1.3 pg/mL | LM concentration Avg, Indomethacin t = 0.5 h: 3.7 pg/mL | LM concentration Avg, Indomethacin t = 1 h: 3.4 pg/mL | LM concentration Avg, Indomethacin t = 3 h: 12.1 pg/mL | LM concentration Avg, Indomethacin t = 6 h: 14.4 pg/mL | LM concentration Avg, Indomethacin t = 24 h: 19.0 pg/mL

CCCCC[C@H](O)/C=C/C=C\C/C=C\C=C\[C@@H](O)CCCC(=O)O [5S,15S-diHETE, 5S,15S-dihydroxy-eicosa-6E, 8Z, 11Z, 13E-tetraenoic acid]
LM concentration Avg, Indomethacin t = 0 h: 0.5 pg/mL | LM concentration Avg, Indomethacin t = 0.25 h: 0.7 pg/mL | LM concentration Avg, Indomethacin t = 0.5 h: 1.2 pg/mL | LM concentration Avg, Indomethacin t = 1 h: 1.3 pg/mL | LM concentration Avg, Indomethacin t = 3 h: 4.2 pg/mL | LM concentration Avg, Indomethacin t = 6 h: 8.0 pg/mL | LM concentration Avg, Indomethacin t = 24 h: 14.4 pg/mL

CC/C=C\C/C=C\C/C=C\C/C=C\C=C\C(O)C/C=C\CCC(=O)O (stereo not drawn) [7-HDHA]
LM concentration Avg, Indomethacin t = 0 h: 1.4 pg/mL | LM concentration Avg, Indomethacin t = 0.25 h: 1.6 pg/mL | LM concentration Avg, Indomethacin t = 0.5 h: 1.9 pg/mL | LM concentration Avg, Indomethacin t = 1 h: 2.1 pg/mL | LM concentration Avg, Indomethacin t = 3 h: 3.6 pg/mL | LM concentration Avg, Indomethacin t = 6 h: 4.3 pg/mL | LM concentration Avg, Indomethacin t = 24 h: 6.2 pg/mL

CC/C=C\C/C=C\C[C@H](O)/C=C/C=C\C=C\[C@@H](O)C/C=C\CCC(=O)O [7S,14S-diHDHA]
LM concentration Avg, Indomethacin t = 0 h: 0.7 pg/mL | LM concentration Avg, Indomethacin t = 0.25 h: — ((—) denotes concentrations <0.1 pg/ml) | LM concentration Avg, Indomethacin t = 0.5 h: — ((—) denotes concentrations <0.1 pg/ml) | LM concentration Avg, Indomethacin t = 1 h: 0.2 pg/mL | LM concentration Avg, Indomethacin t = 3 h: 0.4 pg/mL | LM concentration Avg, Indomethacin t = 6 h: 3.4 pg/mL | LM concentration Avg, Indomethacin t = 24 h: 1.0 pg/mL

CC/C=C\C[C@H](O)/C=C/C=C\C=C\[C@@H](O)C/C=C\C/C=C\CCC(=O)O [10S,17S-diHDHA]
LM concentration Avg, Indomethacin t = 0 h: 0.3 pg/mL | LM concentration Avg, Indomethacin t = 0.25 h: 0.4 pg/mL | LM concentration Avg, Indomethacin t = 0.5 h: 0.4 pg/mL | LM concentration Avg, Indomethacin t = 1 h: 0.4 pg/mL | LM concentration Avg, Indomethacin t = 3 h: 1.5 pg/mL | LM concentration Avg, Indomethacin t = 6 h: 3.6 pg/mL | LM concentration Avg, Indomethacin t = 24 h: 5.5 pg/mL

CC/C=C\C/C=C\CC(O)/C=C/C=C\C/C=C\CCCC(=O)O (stereo not drawn) [12-HEPE]
LM concentration Avg, Indomethacin t = 0 h: 1380.0 pg/mL | LM concentration Avg, Indomethacin t = 0.25 h: 1964.3 pg/mL | LM concentration Avg, Indomethacin t = 0.5 h: 2794.9 pg/mL | LM concentration Avg, Indomethacin t = 1 h: 3115.6 pg/mL | LM concentration Avg, Indomethacin t = 3 h: 11334.7 pg/mL | LM concentration Avg, Indomethacin t = 6 h: 12955.2 pg/mL | LM concentration Avg, Indomethacin t = 24 h: 16008.6 pg/mL

CCCCC/C=C\C[C@H](O)/C=C/C=C\C/C=C\CCCC(=O)O [12-HETE]
LM concentration Avg, Indomethacin t = 0 h: 1270.4 pg/mL | LM concentration Avg, Indomethacin t = 0.25 h: 2311.5 pg/mL | LM concentration Avg, Indomethacin t = 0.5 h: 3820.5 pg/mL | LM concentration Avg, Indomethacin t = 1 h: 5159.5 pg/mL | LM concentration Avg, Indomethacin t = 3 h: 6782.9 pg/mL | LM concentration Avg, Indomethacin t = 6 h: 7205.4 pg/mL | LM concentration Avg, Indomethacin t = 24 h: 8564.0 pg/mL

CC/C=C\C/C=C\CC(O)/C=C/C=C\C/C=C\C/C=C\CCC(=O)O (stereo not drawn) [14-HDHA]
LM concentration Avg, Indomethacin t = 0 h: 485.7 pg/mL | LM concentration Avg, Indomethacin t = 0.25 h: 491.0 pg/mL | LM concentration Avg, Indomethacin t = 0.5 h: 436.3 pg/mL | LM concentration Avg, Indomethacin t = 1 h: 430.6 pg/mL | LM concentration Avg, Indomethacin t = 3 h: 987.4 pg/mL | LM concentration Avg, Indomethacin t = 6 h: 1218.7 pg/mL | LM concentration Avg, Indomethacin t = 24 h: 1492.9 pg/mL

CC/C=C\CC(O)/C=C/C=C\C/C=C\C/C=C\CCCC(=O)O (stereo not drawn) [15-HEPE]
LM concentration Avg, Indomethacin t = 0 h: 25.2 pg/mL | LM concentration Avg, Indomethacin t = 0.25 h: 37.2 pg/mL | LM concentration Avg, Indomethacin t = 0.5 h: 44.9 pg/mL | LM concentration Avg, Indomethacin t = 1 h: 55.9 pg/mL | LM concentration Avg, Indomethacin t = 3 h: 238.4 pg/mL | LM concentration Avg, Indomethacin t = 6 h: 339.7 pg/mL | LM concentration Avg, Indomethacin t = 24 h: 504.7 pg/mL

CCCCC[C@H](O)/C=C/C=C\C/C=C\C/C=C\CCCC(=O)O [15-HETE]
LM concentration Avg, Indomethacin t = 0 h: 68.0 pg/mL | LM concentration Avg, Indomethacin t = 0.25 h: 97.7 pg/mL | LM concentration Avg, Indomethacin t = 0.5 h: 191.0 pg/mL | LM concentration Avg, Indomethacin t = 1 h: 303.6 pg/mL | LM concentration Avg, Indomethacin t = 3 h: 694.4 pg/mL | LM concentration Avg, Indomethacin t = 6 h: 1016.8 pg/mL | LM concentration Avg, Indomethacin t = 24 h: 1498.0 pg/mL

CC/C=C\CC(O)/C=C/C=C\C/C=C\C/C=C\C/C=C\CCC(=O)O (stereo not drawn) [17-HDHA]
LM concentration Avg, Indomethacin t = 0 h: 16.2 pg/mL | LM concentration Avg, Indomethacin t = 0.25 h: 18.9 pg/mL | LM concentration Avg, Indomethacin t = 0.5 h: 19.7 pg/mL | LM concentration Avg, Indomethacin t = 1 h: 25.5 pg/mL | LM concentration Avg, Indomethacin t = 3 h: 62.7 pg/mL | LM concentration Avg, Indomethacin t = 6 h: 95.8 pg/mL | LM concentration Avg, Indomethacin t = 24 h: 179.7 pg/mL
